In PMC11713712, “PFTAIRE peptide degrading cyclin Y and ameliorating cognitive deficits in mouse models of Alzheimer’s Disease” (Alzheimer's & Dementia, 2025):

System: cortical brain section of mouse models
Experiment: Proteomic analysis of the cortical brain section of mouse models
Format: in vivo

PFTAIRE peptide: Peptide derived from the domain of cyclin‐dependent kinase 14 essential for binding to CCNY; produced by solid‐phase peptide synthesis
gene ontology of down-regulated proteins: down‐regulated proteins related to oxidative stress
gene ontology of up-regulated proteins: up‐regulated proteins related to release/transport neurotransmitter in brain synapse
